In the supplement of paper PMC12823440, “Inhibitors supercharge kinase turnover through native proteolytic circuits” (Nature, 2025):
Structures can show the parent of a compound that is named as a salt. The list shows a part of the results. The calls rarely recur for the same compound in another form.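 Kinases were expressed as nanoluciferase fusions in K562 cells and luminescence was read every 4 h between 2 and 18 h as percent of control, DMSO set to 100% and a positive control to 0%. A time point counts as decreased when the signal drops significantly (2 sigma). The hit call is the authors' own, does not follow from the count of time points alone, and its rule is not shown.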

The chains behind the UniProt entries cited, without tags or fusion partners. Where a name states a change or a piece, a line headed by the entry shows the natural chain unless it says otherwise.
UniProt O15530: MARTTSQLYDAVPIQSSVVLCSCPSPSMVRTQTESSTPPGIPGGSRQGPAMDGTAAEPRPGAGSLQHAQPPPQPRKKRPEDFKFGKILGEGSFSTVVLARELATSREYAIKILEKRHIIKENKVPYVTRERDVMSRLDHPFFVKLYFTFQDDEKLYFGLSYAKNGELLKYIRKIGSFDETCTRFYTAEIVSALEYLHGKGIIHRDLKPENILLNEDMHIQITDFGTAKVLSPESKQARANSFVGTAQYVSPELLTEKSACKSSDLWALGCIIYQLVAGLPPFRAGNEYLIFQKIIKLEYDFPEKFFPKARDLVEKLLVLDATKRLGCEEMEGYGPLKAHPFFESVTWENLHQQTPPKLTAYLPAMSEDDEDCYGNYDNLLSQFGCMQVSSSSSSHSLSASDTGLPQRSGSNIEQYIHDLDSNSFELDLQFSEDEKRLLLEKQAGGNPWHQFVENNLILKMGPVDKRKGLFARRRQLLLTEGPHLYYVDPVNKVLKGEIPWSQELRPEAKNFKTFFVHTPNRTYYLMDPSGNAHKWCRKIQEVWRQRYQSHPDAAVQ
UniProt P42356, whole entry, looked up: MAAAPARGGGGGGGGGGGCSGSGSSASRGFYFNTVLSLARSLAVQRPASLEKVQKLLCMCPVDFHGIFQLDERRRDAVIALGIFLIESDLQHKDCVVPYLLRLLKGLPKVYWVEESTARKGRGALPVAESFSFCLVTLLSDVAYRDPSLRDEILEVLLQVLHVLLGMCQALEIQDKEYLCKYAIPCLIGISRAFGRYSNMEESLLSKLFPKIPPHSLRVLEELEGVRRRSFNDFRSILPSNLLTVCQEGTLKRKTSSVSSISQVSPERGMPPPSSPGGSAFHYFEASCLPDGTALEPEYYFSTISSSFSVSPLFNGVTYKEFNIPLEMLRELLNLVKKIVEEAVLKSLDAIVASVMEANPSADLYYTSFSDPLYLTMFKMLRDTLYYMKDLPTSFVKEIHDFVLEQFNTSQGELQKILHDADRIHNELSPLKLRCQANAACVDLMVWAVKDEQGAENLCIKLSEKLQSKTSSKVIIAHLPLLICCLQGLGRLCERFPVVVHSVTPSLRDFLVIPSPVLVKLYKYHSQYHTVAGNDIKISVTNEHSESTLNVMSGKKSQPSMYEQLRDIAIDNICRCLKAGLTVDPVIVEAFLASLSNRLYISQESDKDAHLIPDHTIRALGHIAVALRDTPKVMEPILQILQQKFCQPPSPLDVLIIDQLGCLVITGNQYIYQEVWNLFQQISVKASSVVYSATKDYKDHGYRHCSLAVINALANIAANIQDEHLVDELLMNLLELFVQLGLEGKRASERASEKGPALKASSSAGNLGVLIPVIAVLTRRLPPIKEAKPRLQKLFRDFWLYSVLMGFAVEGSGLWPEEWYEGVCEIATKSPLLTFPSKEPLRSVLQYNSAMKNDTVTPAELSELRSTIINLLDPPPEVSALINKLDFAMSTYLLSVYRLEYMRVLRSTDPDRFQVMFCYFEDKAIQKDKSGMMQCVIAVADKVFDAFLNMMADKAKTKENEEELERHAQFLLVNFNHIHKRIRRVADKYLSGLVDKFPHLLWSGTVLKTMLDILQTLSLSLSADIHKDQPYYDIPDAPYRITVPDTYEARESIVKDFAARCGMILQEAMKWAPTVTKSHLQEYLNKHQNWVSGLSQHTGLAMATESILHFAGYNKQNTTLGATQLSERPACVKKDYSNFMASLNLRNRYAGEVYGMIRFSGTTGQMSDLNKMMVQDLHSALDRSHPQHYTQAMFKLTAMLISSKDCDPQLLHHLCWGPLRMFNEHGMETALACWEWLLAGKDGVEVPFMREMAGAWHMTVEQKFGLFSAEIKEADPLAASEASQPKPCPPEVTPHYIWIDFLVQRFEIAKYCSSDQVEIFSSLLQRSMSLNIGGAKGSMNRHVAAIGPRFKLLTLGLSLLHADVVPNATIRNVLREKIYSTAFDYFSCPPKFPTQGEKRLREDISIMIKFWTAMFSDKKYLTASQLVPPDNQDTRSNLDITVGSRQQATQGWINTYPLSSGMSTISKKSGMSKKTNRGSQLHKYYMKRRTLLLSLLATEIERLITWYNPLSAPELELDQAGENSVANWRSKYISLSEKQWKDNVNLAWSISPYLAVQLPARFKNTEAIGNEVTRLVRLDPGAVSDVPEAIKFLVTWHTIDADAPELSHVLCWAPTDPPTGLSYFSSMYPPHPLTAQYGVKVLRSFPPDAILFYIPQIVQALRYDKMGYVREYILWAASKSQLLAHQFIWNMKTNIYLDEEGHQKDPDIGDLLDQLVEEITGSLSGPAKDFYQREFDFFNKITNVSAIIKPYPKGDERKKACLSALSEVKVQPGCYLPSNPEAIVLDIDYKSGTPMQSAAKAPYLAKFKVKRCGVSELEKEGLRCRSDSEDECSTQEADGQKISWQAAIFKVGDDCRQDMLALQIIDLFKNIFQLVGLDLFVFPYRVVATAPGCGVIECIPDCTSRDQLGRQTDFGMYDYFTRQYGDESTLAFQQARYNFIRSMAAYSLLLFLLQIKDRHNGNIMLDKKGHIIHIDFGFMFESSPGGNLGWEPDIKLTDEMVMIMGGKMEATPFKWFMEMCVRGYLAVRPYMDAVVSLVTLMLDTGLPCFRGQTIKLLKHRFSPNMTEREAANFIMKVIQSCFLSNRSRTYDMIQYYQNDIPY
UniProt Q14289, whole entry, looked up: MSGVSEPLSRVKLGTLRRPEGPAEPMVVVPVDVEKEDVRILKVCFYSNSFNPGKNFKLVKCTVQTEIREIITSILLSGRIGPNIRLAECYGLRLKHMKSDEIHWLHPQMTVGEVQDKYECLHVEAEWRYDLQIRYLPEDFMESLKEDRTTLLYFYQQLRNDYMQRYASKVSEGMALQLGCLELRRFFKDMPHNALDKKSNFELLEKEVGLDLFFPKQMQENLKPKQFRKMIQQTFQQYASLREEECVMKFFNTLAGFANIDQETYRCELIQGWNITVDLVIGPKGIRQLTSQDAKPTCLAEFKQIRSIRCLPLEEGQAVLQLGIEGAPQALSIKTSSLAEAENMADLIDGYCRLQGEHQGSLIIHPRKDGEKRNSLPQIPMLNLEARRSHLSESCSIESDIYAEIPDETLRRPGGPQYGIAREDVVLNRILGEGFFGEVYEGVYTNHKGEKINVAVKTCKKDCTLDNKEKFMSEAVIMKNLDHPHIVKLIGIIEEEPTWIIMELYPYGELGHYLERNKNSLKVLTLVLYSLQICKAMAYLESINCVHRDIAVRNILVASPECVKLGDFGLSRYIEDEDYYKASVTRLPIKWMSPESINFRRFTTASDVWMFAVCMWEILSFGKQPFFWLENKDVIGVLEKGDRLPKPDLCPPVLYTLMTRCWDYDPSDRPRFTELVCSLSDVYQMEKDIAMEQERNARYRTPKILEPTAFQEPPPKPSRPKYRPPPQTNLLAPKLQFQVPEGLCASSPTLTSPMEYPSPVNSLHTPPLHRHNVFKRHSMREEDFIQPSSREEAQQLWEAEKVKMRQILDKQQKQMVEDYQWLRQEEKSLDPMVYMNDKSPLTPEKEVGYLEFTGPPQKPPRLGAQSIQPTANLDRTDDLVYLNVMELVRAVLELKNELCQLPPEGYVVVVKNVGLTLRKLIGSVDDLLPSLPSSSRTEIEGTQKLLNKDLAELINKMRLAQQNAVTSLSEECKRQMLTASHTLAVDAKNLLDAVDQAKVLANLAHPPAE
UniProt Q13546: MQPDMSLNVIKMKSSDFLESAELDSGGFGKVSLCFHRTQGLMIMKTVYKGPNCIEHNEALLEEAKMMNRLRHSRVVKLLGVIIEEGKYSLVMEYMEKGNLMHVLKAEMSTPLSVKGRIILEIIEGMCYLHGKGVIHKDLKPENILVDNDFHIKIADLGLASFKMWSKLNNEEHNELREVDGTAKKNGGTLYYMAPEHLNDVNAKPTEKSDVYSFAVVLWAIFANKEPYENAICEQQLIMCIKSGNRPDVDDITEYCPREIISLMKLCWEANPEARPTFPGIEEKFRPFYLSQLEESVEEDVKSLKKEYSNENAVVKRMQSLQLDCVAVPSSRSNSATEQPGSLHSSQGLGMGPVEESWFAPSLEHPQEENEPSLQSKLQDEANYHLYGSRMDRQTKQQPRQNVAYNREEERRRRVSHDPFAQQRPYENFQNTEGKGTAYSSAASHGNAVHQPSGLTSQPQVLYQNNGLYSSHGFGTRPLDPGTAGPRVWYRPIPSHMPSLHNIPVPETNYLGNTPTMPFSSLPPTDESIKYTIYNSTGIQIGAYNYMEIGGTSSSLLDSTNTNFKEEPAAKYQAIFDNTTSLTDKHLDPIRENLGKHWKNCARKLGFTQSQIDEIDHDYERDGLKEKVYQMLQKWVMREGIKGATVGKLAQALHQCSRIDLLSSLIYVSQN
UniProt Q01974, whole entry: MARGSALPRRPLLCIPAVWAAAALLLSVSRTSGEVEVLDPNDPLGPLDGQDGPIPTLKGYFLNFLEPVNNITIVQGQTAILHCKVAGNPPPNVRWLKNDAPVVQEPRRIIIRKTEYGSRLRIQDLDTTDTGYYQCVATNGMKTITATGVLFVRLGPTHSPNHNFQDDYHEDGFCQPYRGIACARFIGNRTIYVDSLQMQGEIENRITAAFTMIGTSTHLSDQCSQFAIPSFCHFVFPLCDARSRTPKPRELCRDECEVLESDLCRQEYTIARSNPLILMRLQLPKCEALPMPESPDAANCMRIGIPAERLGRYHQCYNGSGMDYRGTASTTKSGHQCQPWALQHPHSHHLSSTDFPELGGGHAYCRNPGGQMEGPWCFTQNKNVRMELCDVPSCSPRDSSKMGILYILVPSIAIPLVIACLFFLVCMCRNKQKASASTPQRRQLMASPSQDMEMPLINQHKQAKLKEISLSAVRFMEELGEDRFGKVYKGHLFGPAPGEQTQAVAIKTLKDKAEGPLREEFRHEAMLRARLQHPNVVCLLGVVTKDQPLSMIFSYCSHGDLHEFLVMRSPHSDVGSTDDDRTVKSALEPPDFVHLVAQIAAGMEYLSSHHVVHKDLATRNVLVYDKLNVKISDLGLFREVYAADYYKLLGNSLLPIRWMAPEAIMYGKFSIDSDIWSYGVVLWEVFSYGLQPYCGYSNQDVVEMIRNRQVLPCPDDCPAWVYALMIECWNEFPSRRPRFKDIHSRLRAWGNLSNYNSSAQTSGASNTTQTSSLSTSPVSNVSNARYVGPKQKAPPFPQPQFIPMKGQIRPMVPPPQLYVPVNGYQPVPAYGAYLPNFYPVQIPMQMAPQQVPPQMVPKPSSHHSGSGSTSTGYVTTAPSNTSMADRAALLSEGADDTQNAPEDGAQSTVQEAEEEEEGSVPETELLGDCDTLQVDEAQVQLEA
UniProt Q15418, whole entry: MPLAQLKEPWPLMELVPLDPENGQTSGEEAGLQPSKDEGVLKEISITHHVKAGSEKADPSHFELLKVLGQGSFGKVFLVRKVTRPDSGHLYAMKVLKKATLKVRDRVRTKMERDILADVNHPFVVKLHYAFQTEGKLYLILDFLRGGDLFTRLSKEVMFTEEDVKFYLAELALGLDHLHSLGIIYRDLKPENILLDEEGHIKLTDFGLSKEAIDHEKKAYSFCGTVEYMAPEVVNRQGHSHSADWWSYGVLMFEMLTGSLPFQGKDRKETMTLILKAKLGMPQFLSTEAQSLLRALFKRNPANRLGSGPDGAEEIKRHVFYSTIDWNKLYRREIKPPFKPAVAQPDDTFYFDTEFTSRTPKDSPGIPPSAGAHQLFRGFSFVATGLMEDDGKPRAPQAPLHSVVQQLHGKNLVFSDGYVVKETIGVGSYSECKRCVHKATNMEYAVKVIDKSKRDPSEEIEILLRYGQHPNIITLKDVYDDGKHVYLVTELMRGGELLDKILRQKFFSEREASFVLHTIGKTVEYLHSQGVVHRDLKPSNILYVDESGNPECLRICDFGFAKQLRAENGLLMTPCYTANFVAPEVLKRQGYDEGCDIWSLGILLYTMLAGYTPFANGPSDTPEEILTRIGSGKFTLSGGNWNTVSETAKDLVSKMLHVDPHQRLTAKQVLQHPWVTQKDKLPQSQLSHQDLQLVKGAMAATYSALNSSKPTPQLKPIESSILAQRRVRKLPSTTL
UniProt Q9NYA1, whole entry: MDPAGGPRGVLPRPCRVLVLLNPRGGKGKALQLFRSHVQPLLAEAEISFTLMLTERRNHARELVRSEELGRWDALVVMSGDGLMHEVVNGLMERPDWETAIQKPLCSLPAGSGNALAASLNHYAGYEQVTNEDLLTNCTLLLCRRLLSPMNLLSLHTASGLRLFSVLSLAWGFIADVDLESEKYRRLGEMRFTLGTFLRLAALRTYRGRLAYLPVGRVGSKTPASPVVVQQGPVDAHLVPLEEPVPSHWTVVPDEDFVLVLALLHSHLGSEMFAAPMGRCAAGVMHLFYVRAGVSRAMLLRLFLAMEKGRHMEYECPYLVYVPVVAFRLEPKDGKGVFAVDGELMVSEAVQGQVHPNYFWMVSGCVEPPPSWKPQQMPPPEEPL

Tests used:
Experiment in all cases: kinase-Nluc reporter destabilization hit call (1 = scored as downregulated) (binary); higher = compound decreases kinase abundance
Conditions in all cases: K562, 2-18 h
PDPK1 = PDPK1 (UniProt O15530)
PIK4CA = PIK4CA (UniProt P42356)
PIK4CB = PIK4CB (UniProt Q9UBF8)
PLK1 = PLK1 (UniProt P53350)
PRKAA1 = PRKAA1 (UniProt Q13131)
PRKCA = PRKCA (UniProt P17252)
PTK2 = PTK2 (UniProt Q05397)
PTK2B = PTK2B (UniProt Q14289)
RAF1 = RAF1 (UniProt P04049)
[1] = target: RAF1_S257L (clone: RAF1_mut) (UniProt P04049)
RET = RET (UniProt P07949)
[2] = target: RET_M918T (clone: RET_mut) (UniProt P07949)
RIOK1 = RIOK1 (UniProt Q9BRS2)
RIPK1 = RIPK1 (UniProt Q13546)
RIPK2 = RIPK2 (UniProt O43353)
ROR2 = ROR2 (UniProt Q01974)
RPS6KA1 = RPS6KA1 (UniProt Q15418)
SPHK1 = SPHK1 (UniProt Q9NYA1)
SRC = SRC (UniProt P12931)
STK24 = STK24 (UniProt Q9Y6E0)

Measured: kinase-Nluc reporter destabilization hit call

CCN(CC)CC(=O)Nc1c(C)cccc1C [Lidocaine (hydrochloride)]
inactive: PDPK1; 10 µM 0 | PIK4CA; 10 µM 0 | PIK4CB; 10 µM 0 | PLK1; 10 µM 0 | PRKAA1; 10 µM 0 | PRKCA; 10 µM 0 | PTK2; 10 µM 0 | PTK2B; 10 µM 0 | RAF1; 10 µM 0 | [1]; 10 µM 0 | RET; 10 µM 0 | [2]; 10 µM 0 | RIOK1; 10 µM 0 | RIPK1; 10 µM 0 | RIPK2; 10 µM 0 | ROR2; 10 µM 0 | RPS6KA1; 10 µM 0 | SPHK1; 10 µM 0 | SRC; 10 µM 0 | STK24; 10 µM 0

CC(C)NC[C@@H](C(=O)N1CCN(c2ncnc3c2[C@H](C)C[C@H]3O)CC1)c1ccc(Cl)cc1 [Ipatasertib (dihydrochloride)]
inactive: PDPK1; 10 µM 0 | PIK4CA; 10 µM 0 | PIK4CB; 10 µM 0 | PLK1; 10 µM 0 | PRKAA1; 10 µM 0 | PRKCA; 10 µM 0 | PTK2; 10 µM 0 | PTK2B; 10 µM 0 | RAF1; 10 µM 0 | [1]; 10 µM 0 | RET; 10 µM 0 | [2]; 10 µM 0 | RIOK1; 10 µM 0 | RIPK1; 10 µM 0 | RIPK2; 10 µM 0 | ROR2; 10 µM 0 | RPS6KA1; 10 µM 0 | SPHK1; 10 µM 0 | SRC; 10 µM 0 | STK24; 10 µM 0

CN(C)C/C=C/C(=O)Nc1cc2c(Nc3ccc(F)c(Cl)c3)ncnc2cc1O[C@H]1CCOC1 [Afatinib (dimaleate)]
inactive: PDPK1; 2.5 µM 0 | PIK4CA; 2.5 µM 0 | PIK4CB; 2.5 µM 0 | PLK1; 2.5 µM 0 | PRKAA1; 2.5 µM 0 | PRKCA; 2.5 µM 0 | PTK2; 2.5 µM 0 | PTK2B; 2.5 µM 0 | RAF1; 2.5 µM 0 | [1]; 2.5 µM 0 | RET; 2.5 µM 0 | [2]; 2.5 µM 0 | RIOK1; 2.5 µM 0 | RIPK1; 2.5 µM 0 | RIPK2; 2.5 µM 0 | ROR2; 2.5 µM 0 | RPS6KA1; 2.5 µM 0 | SPHK1; 2.5 µM 0 | SRC; 2.5 µM 0 | STK24; 2.5 µM 0

COc1ccc(S(=O)(=O)Nc2ccccc2CN(C)C/C=C/c2ccc(Cl)cc2)cc1 [KN-92 (hydrochloride)]
inactive: PDPK1; 2.5 µM 0 | PIK4CA; 2.5 µM 0 | PIK4CB; 2.5 µM 0 | PLK1; 2.5 µM 0 | PRKAA1; 2.5 µM 0 | PRKCA; 2.5 µM 0 | PTK2; 2.5 µM 0 | PTK2B; 2.5 µM 0 | RAF1; 2.5 µM 0 | [1]; 2.5 µM 0 | RET; 2.5 µM 0 | [2]; 2.5 µM 0 | RIOK1; 2.5 µM 0 | RIPK1; 2.5 µM 0 | RIPK2; 2.5 µM 0 | ROR2; 2.5 µM 0 | RPS6KA1; 2.5 µM 0 | SPHK1; 2.5 µM 0 | SRC; 2.5 µM 0 | STK24; 2.5 µM 0

O=C(O)c1ccc2c(c1)nc(Nc1cccc(Cl)c1)c1ccncc12 [Silmitasertib (sodium salt)]
inactive: PDPK1; 10 µM 0 | PIK4CA; 10 µM 0 | PIK4CB; 10 µM 0 | PLK1; 10 µM 0 | PRKAA1; 10 µM 0 | PRKCA; 10 µM 0 | PTK2; 10 µM 0 | PTK2B; 10 µM 0 | RAF1; 10 µM 0 | [1]; 10 µM 0 | RET; 10 µM 0 | [2]; 10 µM 0 | RIOK1; 10 µM 0 | RIPK1; 10 µM 0 | RIPK2; 10 µM 0 | ROR2; 10 µM 0 | RPS6KA1; 10 µM 0 | SPHK1; 10 µM 0 | SRC; 10 µM 0 | STK24; 10 µM 0

COc1cc2nccc(Oc3ccc(NC(=O)C4(C(=O)Nc5ccc(F)cc5)CC4)cc3)c2cc1OC [Cabozantinib (S-malate)]
inactive: PDPK1; 10 µM 0 | PIK4CA; 10 µM 0 | PIK4CB; 10 µM 0 | PLK1; 10 µM 0 | PRKAA1; 10 µM 0 | PRKCA; 10 µM 0 | PTK2; 10 µM 0 | PTK2B; 10 µM 0 | RAF1; 10 µM 0 | [1]; 10 µM 0 | RET; 10 µM 0 | [2]; 10 µM 0 | RIOK1; 10 µM 0 | RIPK1; 10 µM 0 | RIPK2; 10 µM 0 | ROR2; 10 µM 0 | RPS6KA1; 10 µM 0 | SPHK1; 10 µM 0 | SRC; 10 µM 0 | STK24; 10 µM 0

COc1cc(/C=C/C(=O)O)ccc1O [Ferulic acid]
inactive: PDPK1; 10 µM 0 | PIK4CA; 10 µM 0 | PIK4CB; 10 µM 0 | PLK1; 10 µM 0 | PRKAA1; 10 µM 0 | PRKCA; 10 µM 0 | PTK2; 10 µM 0 | PTK2B; 10 µM 0 | RAF1; 10 µM 0 | [1]; 10 µM 0 | RET; 10 µM 0 | [2]; 10 µM 0 | RIOK1; 10 µM 0 | RIPK1; 10 µM 0 | RIPK2; 10 µM 0 | ROR2; 10 µM 0 | RPS6KA1; 10 µM 0 | SPHK1; 10 µM 0 | SRC; 10 µM 0 | STK24; 10 µM 0

Cn1cc(-c2cnc3ccc4ccc(CS(=O)(=O)NCc5ccccn5)cc4c(=O)c3c2)cn1 [MK-8033 (hydrochloride)]
inactive: PDPK1; 10 µM 0 | PIK4CA; 10 µM 0 | PIK4CB; 10 µM 0 | PLK1; 10 µM 0 | PRKAA1; 10 µM 0 | PRKCA; 10 µM 0 | PTK2; 10 µM 0 | PTK2B; 10 µM 0 | RAF1; 10 µM 0 | [1]; 10 µM 0 | RET; 10 µM 0 | [2]; 10 µM 0 | RIOK1; 10 µM 0 | RIPK1; 10 µM 0 | RIPK2; 10 µM 0 | ROR2; 10 µM 0 | RPS6KA1; 10 µM 0 | SPHK1; 10 µM 0 | SRC; 10 µM 0 | STK24; 10 µM 0

CC(=O)c1c(C)c2cnc(Nc3ccc(N4CCNCC4)cn3)nc2n(C2CCCC2)c1=O [Palbociclib (isethionate)]
inactive: PDPK1; 10 µM 0 | PIK4CA; 10 µM 0 | PIK4CB; 10 µM 0 | PLK1; 10 µM 0 | PRKAA1; 10 µM 0 | PRKCA; 10 µM 0 | PTK2; 10 µM 0 | PTK2B; 10 µM 0 | RAF1; 10 µM 0 | [1]; 10 µM 0 | RET; 10 µM 0 | [2]; 10 µM 0 | RIOK1; 10 µM 0 | RIPK1; 10 µM 0 | RIPK2; 10 µM 0 | ROR2; 10 µM 0 | RPS6KA1; 10 µM 0 | SPHK1; 10 µM 0 | SRC; 10 µM 0 | STK24; 10 µM 0

CS(=O)(=O)N1CCN(Cc2cc3nc(-c4cccc5[nH]ncc45)nc(N4CCOCC4)c3s2)CC1 [Pictilisib (dimethanesulfonate)]
inactive: PDPK1; 10 µM 0 | PIK4CA; 10 µM 0 | PIK4CB; 10 µM 0 | PLK1; 10 µM 0 | PRKAA1; 10 µM 0 | PRKCA; 10 µM 0 | PTK2; 10 µM 0 | PTK2B; 10 µM 0 | RAF1; 10 µM 0 | [1]; 10 µM 0 | RET; 10 µM 0 | [2]; 10 µM 0 | RIOK1; 10 µM 0 | RIPK1; 10 µM 0 | RIPK2; 10 µM 0 | ROR2; 10 µM 0 | RPS6KA1; 10 µM 0 | SPHK1; 10 µM 0 | SRC; 10 µM 0 | STK24; 10 µM 0

N#CCC1(n2cc(-c3ncnc4[nH]ccc34)cn2)CN(C2CCN(C(=O)c3ccnc(C(F)(F)F)c3F)CC2)C1 [Itacitinib adipate]
inactive: PDPK1; 10 µM 0 | PIK4CA; 10 µM 0 | PIK4CB; 10 µM 0 | PLK1; 10 µM 0 | PRKAA1; 10 µM 0 | PRKCA; 10 µM 0 | PTK2; 10 µM 0 | PTK2B; 10 µM 0 | RAF1; 10 µM 0 | [1]; 10 µM 0 | RET; 10 µM 0 | [2]; 10 µM 0 | RIOK1; 10 µM 0 | RIPK1; 10 µM 0 | RIPK2; 10 µM 0 | ROR2; 10 µM 0 | RPS6KA1; 10 µM 0 | SPHK1; 10 µM 0 | SRC; 10 µM 0 | STK24; 10 µM 0

N#CC[C@H](C1CCCC1)n1cc(-c2ncnc3[nH]ccc23)cn1 [Ruxolitinib (phosphate)]
inactive: PDPK1; 10 µM 0 | PIK4CA; 10 µM 0 | PIK4CB; 10 µM 0 | PLK1; 10 µM 0 | PRKAA1; 10 µM 0 | PRKCA; 10 µM 0 | PTK2; 10 µM 0 | PTK2B; 10 µM 0 | RAF1; 10 µM 0 | [1]; 10 µM 0 | RIOK1; 10 µM 0 | RIPK1; 10 µM 0 | RIPK2; 10 µM 0 | ROR2; 10 µM 0 | RPS6KA1; 10 µM 0 | SPHK1; 10 µM 0 | SRC; 10 µM 0 | STK24; 10 µM 0

C[C@@H](N)[C@H]1CC[C@H](C(=O)Nc2ccncc2)CC1
inactive: PDPK1; 10 µM 0 | PIK4CA; 10 µM 0 | PIK4CB; 10 µM 0 | PLK1; 10 µM 0 | PRKAA1; 10 µM 0 | PRKCA; 10 µM 0 | PTK2; 10 µM 0 | RAF1; 10 µM 0 | [1]; 10 µM 0 | RIOK1; 10 µM 0 | RIPK1; 10 µM 0 | RIPK2; 10 µM 0 | ROR2; 10 µM 0 | RPS6KA1; 10 µM 0 | SPHK1; 10 µM 0 | SRC; 10 µM 0 | STK24; 10 µM 0
